Test [1] addresses T1, Flag-tagged lipin 1 (human) (UniProt Q14693).
T1 sequence: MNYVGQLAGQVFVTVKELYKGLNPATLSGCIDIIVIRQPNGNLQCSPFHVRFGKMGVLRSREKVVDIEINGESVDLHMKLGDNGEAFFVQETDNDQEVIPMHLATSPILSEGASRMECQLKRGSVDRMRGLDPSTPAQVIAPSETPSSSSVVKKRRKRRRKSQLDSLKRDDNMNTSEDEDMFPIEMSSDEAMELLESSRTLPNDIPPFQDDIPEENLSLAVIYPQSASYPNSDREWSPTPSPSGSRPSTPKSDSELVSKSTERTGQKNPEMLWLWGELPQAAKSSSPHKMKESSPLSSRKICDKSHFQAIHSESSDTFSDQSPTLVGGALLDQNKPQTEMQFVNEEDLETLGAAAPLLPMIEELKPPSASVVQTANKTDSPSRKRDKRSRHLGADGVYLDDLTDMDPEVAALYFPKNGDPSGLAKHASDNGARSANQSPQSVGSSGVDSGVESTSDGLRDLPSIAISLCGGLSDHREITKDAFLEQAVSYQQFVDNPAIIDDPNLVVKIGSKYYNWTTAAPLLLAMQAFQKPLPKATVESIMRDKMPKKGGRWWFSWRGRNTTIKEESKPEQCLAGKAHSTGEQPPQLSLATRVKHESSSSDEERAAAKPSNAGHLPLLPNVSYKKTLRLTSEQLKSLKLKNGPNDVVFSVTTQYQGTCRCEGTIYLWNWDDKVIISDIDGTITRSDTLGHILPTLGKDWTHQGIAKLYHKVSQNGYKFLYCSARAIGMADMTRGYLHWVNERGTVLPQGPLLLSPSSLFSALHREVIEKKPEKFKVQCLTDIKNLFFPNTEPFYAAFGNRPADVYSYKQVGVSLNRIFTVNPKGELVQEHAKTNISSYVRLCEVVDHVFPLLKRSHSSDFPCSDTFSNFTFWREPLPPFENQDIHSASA
The test is described as follows: co-IP; competition: HEK293T cells transfected with Flag-lipin 1, HA-Tip60 and varied amounts of Myc-Sirt1; immunoprecipitated with antibody to Flag, immunoblotted. On the technique in general: A western blot detects proteins with antibodies after separation by electrophoresis.

Chains of the proteins cited; added tags and fusions are not shown.
UniProt Q92993: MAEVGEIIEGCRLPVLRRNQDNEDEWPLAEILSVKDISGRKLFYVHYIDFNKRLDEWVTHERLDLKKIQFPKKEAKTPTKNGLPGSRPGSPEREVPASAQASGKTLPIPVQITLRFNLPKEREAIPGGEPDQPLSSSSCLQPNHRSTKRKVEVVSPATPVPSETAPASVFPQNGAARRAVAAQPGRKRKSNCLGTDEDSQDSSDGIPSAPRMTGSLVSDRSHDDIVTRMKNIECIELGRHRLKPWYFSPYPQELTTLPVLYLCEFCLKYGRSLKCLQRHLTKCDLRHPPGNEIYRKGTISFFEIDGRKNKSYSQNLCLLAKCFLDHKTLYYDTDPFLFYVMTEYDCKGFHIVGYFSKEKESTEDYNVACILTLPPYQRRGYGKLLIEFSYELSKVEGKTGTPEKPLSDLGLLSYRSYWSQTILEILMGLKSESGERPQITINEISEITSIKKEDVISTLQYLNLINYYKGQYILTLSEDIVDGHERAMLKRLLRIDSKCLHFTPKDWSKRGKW
UniProt Q8CHK4: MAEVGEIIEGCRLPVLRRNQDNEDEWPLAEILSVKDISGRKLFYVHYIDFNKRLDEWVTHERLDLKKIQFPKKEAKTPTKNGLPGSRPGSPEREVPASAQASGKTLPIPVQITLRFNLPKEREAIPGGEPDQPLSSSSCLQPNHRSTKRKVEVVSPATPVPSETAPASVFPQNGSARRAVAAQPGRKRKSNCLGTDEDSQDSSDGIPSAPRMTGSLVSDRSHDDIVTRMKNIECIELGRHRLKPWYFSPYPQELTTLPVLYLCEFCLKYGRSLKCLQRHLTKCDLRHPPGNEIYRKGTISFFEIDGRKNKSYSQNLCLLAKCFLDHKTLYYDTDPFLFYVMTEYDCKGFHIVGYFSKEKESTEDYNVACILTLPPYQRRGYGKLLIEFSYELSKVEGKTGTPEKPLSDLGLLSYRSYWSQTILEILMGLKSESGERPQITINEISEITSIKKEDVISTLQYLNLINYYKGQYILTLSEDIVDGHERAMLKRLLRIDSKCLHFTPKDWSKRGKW

The target in test [2] is T1, Flag-tagged lipin 1 (human). The test is described as follows: co-IP; HEK293T cells co-transfected; protein extracts immunoprecipitated with antibody to Flag and immunoblotted; lysis buffer 20 mM Tris-HCl pH 7.4, 150 mM NaCl, 1% Triton.
Test [3] addresses T2, endogenous lipin 1 (3T3-L1 adipocytes) (mouse (endogenous in 3T3-L1)) (UniProt Q91ZP3).
T2 sequence: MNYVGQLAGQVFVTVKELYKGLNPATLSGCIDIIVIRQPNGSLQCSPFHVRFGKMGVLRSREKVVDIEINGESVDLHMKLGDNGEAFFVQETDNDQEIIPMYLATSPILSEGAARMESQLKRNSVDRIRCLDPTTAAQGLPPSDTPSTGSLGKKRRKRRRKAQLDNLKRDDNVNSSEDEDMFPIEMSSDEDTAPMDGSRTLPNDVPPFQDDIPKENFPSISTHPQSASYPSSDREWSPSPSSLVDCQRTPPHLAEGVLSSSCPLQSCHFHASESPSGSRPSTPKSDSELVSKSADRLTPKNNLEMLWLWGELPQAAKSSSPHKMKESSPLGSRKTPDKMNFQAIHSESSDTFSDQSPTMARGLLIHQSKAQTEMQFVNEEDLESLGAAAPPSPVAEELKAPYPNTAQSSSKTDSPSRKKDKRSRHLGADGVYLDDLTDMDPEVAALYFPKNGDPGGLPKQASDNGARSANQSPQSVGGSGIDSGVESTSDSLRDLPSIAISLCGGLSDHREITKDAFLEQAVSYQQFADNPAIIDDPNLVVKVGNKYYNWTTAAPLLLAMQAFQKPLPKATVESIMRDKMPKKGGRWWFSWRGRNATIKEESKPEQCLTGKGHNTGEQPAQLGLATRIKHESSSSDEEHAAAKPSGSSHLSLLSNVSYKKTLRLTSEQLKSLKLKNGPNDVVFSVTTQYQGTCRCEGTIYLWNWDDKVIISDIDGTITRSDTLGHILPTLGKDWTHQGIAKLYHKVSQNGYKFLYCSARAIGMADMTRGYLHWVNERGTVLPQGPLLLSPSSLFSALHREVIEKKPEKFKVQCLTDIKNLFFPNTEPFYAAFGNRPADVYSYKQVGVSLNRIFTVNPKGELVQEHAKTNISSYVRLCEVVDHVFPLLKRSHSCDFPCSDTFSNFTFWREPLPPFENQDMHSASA
Nature of the test: co-IP; endogenous proteins; lysates of 3T3-L1 adipocytes treated with or without OA for 3 h, immunoprecipitated by antibody to lipin 1 or Tip60, immunoblotting.

No constants are given. Whether binding was seen depends on the method and setting. Binding seen in cells or lysates may run through a third protein. Some results given as binding are weak or reduced against the parent protein; the word gives no strength. For part of these data: Sequences can lack the tags named with a protein.

This is an account of results in article PMC5953937.

With HA-Tip60 (from UniProt Q92993 1-513), the binding result in test [1] is recorded as “binds”.
On to “Myc-tagged Tip60 (from UniProt Q92993 1-513)”, for which the binding result in test [2] is given as “binds”.
As to “endogenous Tip60 (3T3-L1 adipocytes) (from UniProt Q8CHK4 1-513)”, in test [3], the binding entry is “binds”.
